Measured values taken from article PMC4868951.

The chains behind the UniProt entries cited, without tags or fusion partners.
UniProt Q02748: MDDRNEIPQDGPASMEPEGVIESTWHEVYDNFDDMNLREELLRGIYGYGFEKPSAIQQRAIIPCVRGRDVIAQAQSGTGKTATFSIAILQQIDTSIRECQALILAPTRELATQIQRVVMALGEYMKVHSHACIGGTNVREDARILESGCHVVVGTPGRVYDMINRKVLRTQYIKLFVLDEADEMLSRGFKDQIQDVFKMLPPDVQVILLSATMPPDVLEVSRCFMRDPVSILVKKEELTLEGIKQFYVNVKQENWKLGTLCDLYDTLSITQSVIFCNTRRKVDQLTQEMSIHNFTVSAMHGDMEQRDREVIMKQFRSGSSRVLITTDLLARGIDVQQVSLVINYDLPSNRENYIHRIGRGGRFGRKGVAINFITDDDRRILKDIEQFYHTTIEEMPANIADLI

Target: eIF4A (immunoprecipitated for mass spectrometry) (Drosophila) (UniProt Q02748)
Test: affinity purification with mass spectrometry; eIF4A immunoprecipitations in triplicate from cells in medium with (+aa) or without (-aa) amino acids, co-precipitating proteins identified by mass spectrometry

Substance	binding
EF2 (from UniProt P13060 1-844)	binds
RpS3 (from UniProt Q06559 1-246)	binds

No constants are given. Whether binding was seen depends on the method and setting. Binding seen in cells or lysates may run through a third protein. Here binding means that the protein was enriched with, or labelled near, the bait; the list need not be complete.
